Measurements from patent US20250257146A1 (DAIICHI SANKYO COMPANY, LIMITED, priority 2013, published 2025).

Test: general procedure: solution-phase peptide synthesis; N-hydroxysuccinimide with EDC hydrochloride; N-hydroxysuccinimide with DCC
Conditions: trifluoroacetate (deprotected intermediates)

Substance | conjugation yield (conjugation step) | step yield (late stage modification step)
N-(tert-Butoxycarbonyl)glycylglycyl-L-phenylalanyl-N-(4-{[(1S,9S)-9-ethyl-5-fluoro-9-hydroxy-4-methyl-10,13-dioxo-2,3,9,10,13,15-hexahydro-1H,12H-benzo[de]pyrano[3′,4′:6,7]indolizino[1,2-b]quinolin-1-yl]amino}-4-oxobutyl)glycinamide | 73% | 
Glycylglycyl-L-phenylalanyl-N-(4-{[(1S,9S)-9-ethyl-5-fluoro-9-hydroxy-4-methyl-10,13-dioxo-2,3,9,10,13,15-hexahydro-1H,12H-benzo[de]pyrano[3′,4′:6,7]indolizino[1,2-b]quinolin-1-yl]amino}-4-oxobutyl)glycinamide trifluoroacetate |  | 99%
